For one substance, binding results are on record in article PMC4330383.

Chains of the proteins cited; added tags and fusions are not shown. Residues count along the entry.
UniProt Q9Y294, residues 1-156: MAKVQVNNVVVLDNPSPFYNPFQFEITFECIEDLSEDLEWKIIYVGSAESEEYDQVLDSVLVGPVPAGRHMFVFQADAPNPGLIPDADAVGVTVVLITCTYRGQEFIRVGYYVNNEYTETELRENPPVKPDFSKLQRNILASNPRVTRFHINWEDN

These are yes or no findings as the source states them, for the method shown.

The target of assay [1] is ASF1a (1–156) (human) (UniProt Q9Y294). As to the kind of experiment: SEC-MALS; Superdex 200 10/300 GL Increase, 50 mM Tris pH 8.0, 1.5 M NaCl; for H3-H4 alone: tetramer of two H3-H4 dimers; both purified.
The target is the same in assay [2]. As to the kind of experiment: SEC-MALS; Superdex 200 10/300 GL Increase, 50 mM Tris pH 8.0, 0.5 M NaCl, 20°C; both purified. On the technique in general: In gel filtration, larger molecules generally elute earlier.

“ASF1a (1–156) (from UniProt Q9Y294 1-156) (domain or fragment; other documents disagree on this pair)”: the binding result in assay [1] and in assay [2] was “no binding” each time.
